Results on 107 sequences are retold here after PubChem BioAssay AID1508600 (Functional Genomics Laboratory (NCATS/FGL), 2020).

Hit rate of the full screen: of about 53,000 sequences, about 3,700 (7%) were called active.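 Rule for the calls: active = gene knockdowns whose robust z-score for IL-1 alpha signal is at least 2 or at most -2, so actives lie on both sides; inactive = the rest.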 The list shows a part of the results.

This assay is described as follows: Components of the Cytosolic LPS Sensing Pathway: Gene Identification via Genome-wide siRNA Screen.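 Note: robust z of the log signal after scaling to non-targeting control siRNA wells of the plate.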 The following applies: RAW264.7 macrophages, IL-1a HTRF, actives lie on both sides, screened at 100 nM (by protocol), cells primed 5 h with Pam3CSK4 first. Put shortly: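 IL-1a HTRF of supernatants after 24 hour LipidA transfection of Pam3CSK4-primed (5 hours) RAW264.7 cells, 48h post-siRNA transfection (100 nM). Scores: percent of plate negative-control median, then log-based robust z-score.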
On to GGGCACAGGAUGAAAUGCATT against Ccdc150, for which the z-score was inactive: -0.944.
The figure for GGGAAAAGAUGUUUCUAUCTT against Ifi44 is inactive: 1.05.
In the case of GGUGGUUUUUUGUUGUUGUTT against Lhfpl4, the z-score was inactive: 0.277.
The figure for GGCUCCAAAGUUUGUGCUGTT against Grin3b is inactive: 1.36; for GGAGACUGUCUAAUAAAAATT against Medag it is inactive: 0.0572.
For the sequence GGAUAUCAAGGGAUCAGACTT against Chchd4, the z-score was inactive: 0.00163.
Consider GGAUGUUUGCUAGCUUCCCTT against Hba-a1, for which the z-score was inactive: 0.0494.
With GCUCAGCUUAUGACCACGUTT against Mapk3, the z-score was inactive: 1.5.
Take GCCAAUGAACCGAUCUCUGTT against Ep400: the z-score was active: -2.13.
With GCUUGGAGUCGUAGUUUCUTT against Cass4 the figure was inactive: -1.67; with GGAGUUGUCUGUCUUUAAGTT against Inpp5a, inactive: -0.449; with GGAACUAGUUUUUAUACUCTT against Igfbp1, active: 2.23.
With GGACAGCGACAAGAUUCCGTT against Sox4 the figure was inactive: -0.714.
With GGCCGAGGAUGAAAUUGAGTT against Stk25 the figure was inactive: -0.239; with GGUGGUCUACAGAAAAUUCTT against Ncf1, inactive: -0.908; with GGAGACUAUUUCAUCUACUTT against Tnfsf15, inactive: 0.347.
In the case of GCUCAUUCACACUUAAUCATT against Dock11, the z-score was inactive: -0.737.
The figure for GGAAAUGAAGACAUACCUGTT against Olfr175 is inactive: 0.741; for GCGAGUUUGUGCUACAAAATT against Htr7 it is inactive: 1.3; for CCAGGUCUAUUUUGCCAUUTT against Dnmbp it is inactive: 1.32.
The figure for GCACAUCGCAUUACUAACATT against Pabpc2 is inactive: 1.31; for GGACCACCAUUCCAUCAGATT against Sema3d it is inactive: -0.174; for GGAAAUCCAUCGUUAUUCUTT against Abca8a it is active: 2.08.
The figure for GCAGCACCUUUGUGGUUCCTT against Ins2 is inactive: -1.1; for GGGCUUUGGAUGAACUGCATT against Cldn17 it is inactive: -0.0702; for GCAGUCAUAACAGAGCAUCTT against Gtf2h3 it is inactive: 0.931.
Consider GGGAUUGCAUGGUUAAACUTT against Nfam1, for which the z-score is inactive: -0.901.
Consider GGUCAUUUGUUGUAUGUAGTT against Cdr1os, for which the z-score is inactive: -1.61.
As for GCCUCAGGAAGCAGAAUGATT against Krt78, the z-score was inactive: -0.196.
As to GCUACUAAAGGUUUUAGGATT against Rps6ka2, the z-score is inactive: -0.335.
With CCUUGGACUUGAGUUCCAATT against Ssu2, the z-score is inactive: 1.58.
With CCCAACUGUUCAGAAAAUATT against Olfr1212 the figure was inactive: -0.00602.
Take GCGAUCCAGGAGCUAUCAATT against Helb: the z-score was inactive: -0.879.
Turning to CCUGCUUACGUGAAAUACUTT against Rap1gap2, the z-score is inactive: -0.248.
With GGUUCUUAUCUCUAUUCAGTT against Olfr1270 the figure was inactive: 0.432; with GCAGCAGAACUUUUUUGCCTT against Hif1an, inactive: 0.587; with GGUUCACAGUAACCAUUGGTT against Zc3h18, active: -2.45.
With GCAAGAAACACGGAGGUGATT against Olfr1231 the figure was inactive: -1.06.
The figure for GGCCUUCGUUGAAUUCUUGTT against C1qbp is inactive: -0.0708.
With GCAAGCUAGAGAAAAUCAGTT against Serpinb3b, the z-score was inactive: -0.231.
The figure for GCAUAUCCUAAACACUGUUTT against Pqlc3 is inactive: -0.966; for “GCAAUAGGCUUUUAUUGUCTT against 5930422O12Rik” it is inactive: -1.64.
With GAUGAAAUCUAAAGAUGGGTT against Olfr178 the figure was inactive: 0.411; with GGUGUCAUAGACAUGAAAATT against Armc8, inactive: -0.977; with GGAUUUAGAUUUUUCCCUCTT against Alox12e, inactive: 0.15.
The figure for GGAAGAACAGGAUUGUGAATT against Gpr156 is inactive: -0.0843; for GGAAGAACUAGAAGAAAAUTT against Uso1 it is inactive: -0.228.
Take GCAACAUUGCAUCUAUUUATT against Dbx1: the z-score is inactive: 0.866.
With GGAUGUGGUUCUUGAACAUTT against Chid1 the figure was inactive: 0.259.
With GGGUGUGUUGUAUCUCCCUTT against Cdh26 the figure was inactive: -0.964; with GGAGUUUUGUGAACUAUGATT against Slc36a3, active: -2.73; with GGUCAACCCAGCCUAUUCATT against Tmem129, inactive: -0.744.
With GGACUUGAACCCAGUUUGCTT against Arhgef4 the figure was inactive: 0.78; with GGUAUUGACCAAGAAGAAATT against Taf12, inactive: -1.85.
Take GGCACAGAAAAUCUCUGAUTT against Psmd3: the z-score is inactive: -0.465.
With GCAAAGAACGGAAUGCACCTT against Dtd1 the figure was inactive: -1.03.
With GGAAGUUCAUCAUGAUAUCTT against Cxadr the figure was inactive: -0.108; with GGAAUAUGUGCAGAAGCUGTT against Fgd2, inactive: -1.2.
With GGUGACUCUGAUUCUCAUATT against Slc22a13 the figure was inactive: -0.176; with GCUCAUGUAUGUGAAUUUGTT against Ptx3, inactive: -1.25; with GGUGAGGUAGGUUACUCAGTT against Reps1, active: -2.16.
Consider GGCUAUCAGUUUCAAUGAGTT against Olfr663, for which the z-score was inactive: 0.0195.
With GGCUUAGAAUCAGACUUGUTT against Tor3a the figure was inactive: 0.673.
With CCAACUCCUAACAGACCUATT against Csf2rb the figure was inactive: 0.773.
The figure for GGACUGGAAGAAUUUUUUGTT against Mrpl47 is inactive: 0.293; for GGAACGGCUGAUCACUCUGTT against Otop1 it is inactive: -0.237; for GCUUUUGCUACAAGUGUAUTT against Cop1 it is inactive: -0.593.
Turning to GCUAAUAAUGGUCAAAGCCTT against Prrt3, the z-score is inactive: -0.963.
With GGCCUACGACAAAUCCAAATT against Csrp2 the figure was inactive: 1.14.
With GCUGAGUUCAUUGCAAUGCTT against Cyp4a12b the figure was inactive: 0.274.
The figure for CCAGUUCCGGUCAGAUUAUTT against Gnal is inactive: -1.55; for GGAAAGUUAAUGCACAUUUTT against Hmg20a it is inactive: -1.68.
GGUAUGCAACCUUGCCUUUTT against Coa3: the z-score was inactive: 0.945.
For “GGAGACCUGUGACUCCUUATT against 4932415M13Rik”, the z-score is inactive: 1.9.
The figure for GCAAAGGUUCUAGUUGAUATT against Cct2 is inactive: -0.585; for GGAACCAGAGGACAAAGACTT against Ccdc96 it is active: -2.43; for CGAAGGUCGUUAUUAUAAUTT against Wls it is inactive: 0.599.
The figure for CCGUGGUCUACUCCAUCAUTT against Slc6a19 is inactive: 1.19.
The figure for GGGAAGGAACUUGAUUUGUTT against L3mbtl4 is inactive: -0.0396; for GCGAAAGAUGGAAGACGACTT against Gtf3c1 it is inactive: 1.18.
With GGAGUUGGCAACAAGUUCUTT against Btbd35f1, the z-score is inactive: -0.196.
With GGACCUUGUACCCAUUCCUTT against Prr5 the figure was inactive: 1.01; with GCUCAACGCAUUUUUCCAUTT against Neurod2, inactive: 0.57.
Take CGGCACCAGUGUUCUAUUGTT against Ddi2: the z-score is inactive: 1.91.
Regarding GGCAACUAAGGCUAAGAAGTT against H1f4, the z-score is inactive: -1.89.
The figure for GGACUGUUGCAUGACUCUCTT against Evc is inactive: 1.08.
With CCUACUCUCUAGAAAAGGATT against Olfr1006 the figure was inactive: -1.76.
The figure for GGGAGUCCGUUCAAACUCGTT against Pttg1 is inactive: -0.576; for GCAUGCGAUGAAGACAACATT against Efcab11 it is inactive: 1.17.
For the sequence GGCCAUUUCCAUCAGAGGATT against Vav2, the z-score was inactive: -1.31.
The figure for GGAGUGUGCGGAACAUUCUTT against Slc17a5 is inactive: 0.364; for GGUCUUACCUUUUGAAAAATT against Mtbp it is inactive: 0.0999.
The figure for CCAACAGCAACGAUGACAATT against Thoc5 is active: -2.94.
Regarding GCUUUGACCUCGAAAAUGGTT against Pde4c, the z-score is inactive: -0.0868.
The figure for GGUGAAGAUGGACUCUCUGTT against Trmt10b is inactive: -1.15; for GGAGUCAAAUGAUUAUGUCTT against Lax1 it is inactive: -0.776; for GUAACCAGUUCUUCUCUGUTT against Vmn1r24 it is inactive: -0.443.
With GGCGUGCUUUCUACCAAGGTT against Slco1a5 the figure was inactive: 0.346; with GGAGUUGUUCAGGUCCCGATT against Crlf1, inactive: -0.249; with CCUAAAGACGUGCAAUAUGTT against Zfp287, inactive: 0.526.
With GGAAAAACAAGCAUUAGGUTT against Mthfsd the figure was inactive: -0.737; with “GUCACUGAAUUUCUCCUCUTT against Olfr104-ps”, active: -2.28; with GGAAUGUUACCCUUCAACUTT against Slc25a13, inactive: -0.0366.
GGCUUUGAUGUCAGCACUGTT against Ngrn: the z-score was inactive: 0.247.
With GCUAUUGACCAGGUUAUAATT against Pdhb the figure was inactive: 1.06.
The figure for GGCACGAUACUUAUUUGAATT against Nudt13 is inactive: -1.43.
With GGCUUUGGAUGUUUUUGUATT against Fgf10, the z-score is inactive: -1.46.
